Measured values published in publication PMC6925144, “A prospective compound screening contest identified broader inhibitors for Sirtuin 1” (Scientific Reports, 2019).
The full ranking holds about 3,200 compounds; the median of “TSA(without NAD+) / Primary screening (TSA) / delta Tm (K)” is about -0.07, and the highest 2% start at about 0.37. Some of the results follow.

Protein sequences, listed by entry. Tags and fused reporters are not part of them. Residues count along the entry.
UniProt Q96EB6, 2-747 limits assumed: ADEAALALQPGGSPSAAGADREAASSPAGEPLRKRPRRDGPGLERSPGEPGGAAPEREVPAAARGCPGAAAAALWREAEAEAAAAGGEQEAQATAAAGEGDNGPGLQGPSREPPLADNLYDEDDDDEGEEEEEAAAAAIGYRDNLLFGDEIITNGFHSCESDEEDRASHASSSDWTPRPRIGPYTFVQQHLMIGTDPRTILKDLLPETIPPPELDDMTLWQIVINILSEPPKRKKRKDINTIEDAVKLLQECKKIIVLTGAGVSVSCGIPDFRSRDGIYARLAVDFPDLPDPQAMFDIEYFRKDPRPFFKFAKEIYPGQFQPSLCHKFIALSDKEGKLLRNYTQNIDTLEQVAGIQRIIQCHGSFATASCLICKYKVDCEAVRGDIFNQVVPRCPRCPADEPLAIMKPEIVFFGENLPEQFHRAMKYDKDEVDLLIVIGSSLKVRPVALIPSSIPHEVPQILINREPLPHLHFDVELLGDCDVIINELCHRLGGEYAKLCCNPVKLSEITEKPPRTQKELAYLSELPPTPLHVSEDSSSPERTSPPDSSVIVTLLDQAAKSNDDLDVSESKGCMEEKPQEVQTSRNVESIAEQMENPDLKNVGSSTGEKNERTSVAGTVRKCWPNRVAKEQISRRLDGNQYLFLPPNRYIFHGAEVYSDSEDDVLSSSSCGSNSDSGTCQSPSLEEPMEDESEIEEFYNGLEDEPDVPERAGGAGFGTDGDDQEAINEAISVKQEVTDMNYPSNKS

Molecular target: NAD-dependent deacetylase Sirtuin 1 (human, UniProt Q96EB6)
Assay: primary screen, delta tm
Design: single well (n = 1)
Conditions: 10 µM
Procedure, shortened: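 Thermal shift of Sirtuin 1 measured without NAD+, compound at 10 µM (n = 1); value is ΔTm, with hits defined as ΔTm > 0.45 K or < −1.5 K. Hits retested at 5, 10, 20 µM (n = 4) and counterscreened on bovine carbonic anhydrase and ABL1 SH2 domain.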

Compound | TSA(without NAD+) / Primary screening (TSA) / delta Tm (K)
CC1CCC1N (stereo not drawn) | -0.21 K
CCN(C(=O)CSc1nnc(-c2ccccc2Cl)n1C1CCCC1)C1CCS(=O)(=O)C1 (stereo not drawn) | -0.15 K
O=C1C(=O)N(CCOc2ccc3ccccc3c2)c2ccccc21 | -0.31 K
COc1ccc(C)cc1-c1nnc(S)n1N | -0.15 K
Cc1cc(-c2nc3cc(F)ccc3n2C)ccc1NC(=O)C1CCCN1C(=O)C(C)C (stereo not drawn) | 0.12 K
O=C(NCc1nc2ccccc2[nH]1)C(O)(c1ccccc1)c1ccccc1 | 0.07 K
Cc1cc(C)c2c(N)c(C(=O)NN=C3C4CC5CC(C4)CC3C5)sc2n1 | -0.22 K
Cc1ccc2[nH]c(-c3cccs3)c(CCC(=O)N3CCC(C(=O)Nc4ccccc4)CC3)c2c1 | 0.09 K
Cc1csc2c(N3CC4CCCN4CC3C)ncnc12 (stereo not drawn) | -0.13 K
CON(C)C(=O)c1cc2c(C)nn(C)c2nc1C | 0.25 K
COc1ccc(C2=CCN(C(=O)Cn3cc(C)c4ccccc43)C2)cc1 | 0.09 K
COC(=O)c1cc(NC(=O)CN2CCC(C(N)=O)CC2)cc(C(=O)OC)c1 | -0.33 K
Cc1ccc2c(CC(=O)Nc3cc(C(N)=O)ccc3N3CCCC3)coc2c1 | -0.12 K
CC(C)Oc1ccc(C(=O)C2=C(O)C(=O)N(CCCN3CCOCC3)C2c2ccc(F)cc2)cc1 (stereo not drawn) | -0.03 K
Nc1ccccc1-c1nc(C2CC2)n[nH]1 | -0.12 K
O=C(Cn1nc(-c2ccccc2)ccc1=O)Nc1cc(-c2cccs2)nn1-c1ccccc1 | -0.02 K
Cc1cc(N2CCN(Cc3nc4ccccc4s3)CC2)n2ncnc2n1 | -0.08 K
O=C(CN1CCC(Cc2ccccc2)CC1)NCc1ccc(F)cc1 | -0.15 K
CC(O)CCN (stereo not drawn) | -0.13 K
COc1cc(/C=C/C(=O)Nc2ccc3c(c2)OCCO3)cc(OC)c1 | -0.08 K

Laid out differently: entries from further up

| Compound | TSA(without NAD+) / Primary screening (TSA) / delta Tm (K) |
| --- | --- |
| CC1CCC1N (stereo not drawn) | -0.21 K |
| CCN(C(=O)CSc1nnc(-c2ccccc2Cl)n1C1CCCC1)C1CCS(=O)(=O)C1 (stereo not drawn) | -0.15 K |
| O=C1C(=O)N(CCOc2ccc3ccccc3c2)c2ccccc21 | -0.31 K |
| COc1ccc(C)cc1-c1nnc(S)n1N | -0.15 K |
| Cc1cc(-c2nc3cc(F)ccc3n2C)ccc1NC(=O)C1CCCN1C(=O)C(C)C (stereo not drawn) | 0.12 K |
| Cc1cc(C)c2c(N)c(C(=O)NN=C3C4CC5CC(C4)CC3C5)sc2n1 | -0.22 K |
| Cc1ccc2[nH]c(-c3cccs3)c(CCC(=O)N3CCC(C(=O)Nc4ccccc4)CC3)c2c1 | 0.09 K |
| Cc1csc2c(N3CC4CCCN4CC3C)ncnc12 (stereo not drawn) | -0.13 K |
| COc1ccc(C2=CCN(C(=O)Cn3cc(C)c4ccccc43)C2)cc1 | 0.09 K |
| Cc1ccc2c(CC(=O)Nc3cc(C(N)=O)ccc3N3CCCC3)coc2c1 | -0.12 K |
| CC(C)Oc1ccc(C(=O)C2=C(O)C(=O)N(CCCN3CCOCC3)C2c2ccc(F)cc2)cc1 (stereo not drawn) | -0.03 K |
| O=C(Cn1nc(-c2ccccc2)ccc1=O)Nc1cc(-c2cccs2)nn1-c1ccccc1 | -0.02 K |
| O=C(CN1CCC(Cc2ccccc2)CC1)NCc1ccc(F)cc1 | -0.15 K |
| CC(O)CCN (stereo not drawn) | -0.13 K |
| COc1cc(/C=C/C(=O)Nc2ccc3c(c2)OCCO3)cc(OC)c1 | -0.08 K |

(continued)

Compound | TSA(without NAD+) / Primary screening (TSA) / delta Tm (K)
O=C(CC12CC3CC(CC(C3)C1)C2)NNC(=O)c1ccc(S(=O)(=O)N2CCc3ccccc3C2)cc1 | 0.19 K
COc1cc(CNC(=O)NCCC2=CCCCC2)ccn1 | -0.05 K
O=C(Cn1c(C(F)(F)F)nc2ccccc21)N/N=C1/C(=O)N(Cc2ccc(Cl)cc2)c2ccccc21 | 0.15 K
NC(=O)COC(=O)C12CC3CC(C1)CC(c1ccccc1)(C3)C2 | -0.13 K
NC(=O)c1cccc(NC(=O)C2CCN(S(=O)(=O)c3cccs3)CC2)c1 | 0.05 K
O=S(=O)(O)CC(O)CO (stereo not drawn) | -0.18 K
CC(=O)Cn1c(CN2CCC(C(N)=O)CC2)nc2c1c(=O)n(C)c(=O)n2C | -0.02 K
CC(c1ccc(S(N)(=O)=O)cc1)N(C)Cc1nc2ccccc2c(=O)[nH]1 (stereo not drawn) | -0.15 K
CCCN1CCN(CCCOc2ccccc2)CC1 | 0.13 K
Cc1[nH]c2ccc(C(=O)N3CCCC(C(N)=O)C3)cc2c1C (stereo not drawn) | 0.22 K
COc1ccc(C2C(C(=O)c3cc4ccccc4o3)=C(O)C(=O)N2CCN2CCOCC2)cc1 (stereo not drawn) | 0.02 K
CC(C)NC(=O)Cn1cc(C(=O)C2CCCCC2)c2ccccc21 | -0.03 K
CONC(=O)c1ccc2[nH]c(C)c(C)c2c1 | -0.12 K
O=C(Cn1[nH]c(=O)ccc1=O)OCc1ncc(-c2cccc(Cl)c2)o1 | -0.04 K
Nc1ncnc2c1ncn2CC(=O)O | -0.18 K
CNC(=O)C(C)CN(C)c1ccc(Br)cc1C#N (stereo not drawn) | -0.17 K
O=C(c1ccc2nnnn2c1)N(Cc1ccc(O)cc1)Cc1ccco1 | -0.18 K
CN(c1ccccc1)S(=O)(=O)c1cccc(NC(=O)COC(=O)C23CC4CC(CC(C4)C2)C3)c1 | -0.02 K
CN(c1ccccc1)S(=O)(=O)c1ccc(C(=O)NNC(=O)C23CC4CC(CC(C4)C2)C3)cc1 | 0.03 K
NC(=O)c1ccc(NC(=O)COC(=O)c2cc3c(s2)CCCCC3)cc1 | -0.14 K

Compound | TSA(without NAD+) / Primary screening (TSA) / delta Tm (K)
O=C(Nc1ccccc1Oc1ccccc1)c1cc(=O)c2ccccc2o1 | 0.07 K
NC(=O)CCn1cnc2sccc2c1=O | 0.07 K
CN(CC(=O)NCc1ccco1)C(=O)c1ccc(-n2cccn2)cc1 | 0.02 K
Cc1ccc(C(=O)C2=C(O)C(=O)N(CCCN3CCOCC3)C2c2ccc(Cl)cc2)cc1 (stereo not drawn) | 0.18 K
NC(=O)C1COCCN1S(=O)(=O)c1c(Cl)nc2ccccn12 (stereo not drawn) | 0.23 K
CC(NC(=O)CN1C(=O)C2CC=CCC2C1=O)C12CC3CC(CC(C3)C1)C2 (stereo not drawn) | -0.14 K
CCC(C)(O)CN (stereo not drawn) | -0.23 K
O=C1CN(c2ncnc3c2oc2ccccc23)CCN1 | -0.07 K
O=C(/C=C/c1cn(-c2ccccc2)nc1-c1cc2ccccc2o1)NCc1nnc2ccccn12 | 0.19 K
CCOc1nc2cc(C(=O)OC(C)Cn3cccn3)ccc2[nH]1 (stereo not drawn) | -0.15 K
O=C(C1=C(O)C(=O)N(CCCN2CCOCC2)C1c1ccco1)c1ccco1 (stereo not drawn) | -0.22 K
CNC(=O)c1ccc(CSc2nccn2Cc2ccccn2)cc1 | -0.04 K
CCn1c(SCc2cccc(F)c2)nc2ccsc2c1=O | -0.23 K
Cc1cc(N2CCN(CC(=O)Nc3ccccc3C(N)=O)CC2)nc(C(C)C)n1 | -0.11 K
CCCCn1c(N)c(N(CC(C)C)C(=O)c2cccc(S(=O)(=O)N(C)c3ccccc3)c2)c(=O)[nH]c1=O | -0.08 K
CC1(c2cccc(NC(=O)c3ccc4ccccc4n3)c2)NC(=O)NC1=O (stereo not drawn) | -0.38 K
O=C(Nc1ccc2c(c1)C(=O)NC2=O)Nc1cnc[nH]1 | -0.17 K
NC(=O)CCN(Cc1ccccc1)C(=O)COC(=O)C12CC3CC(C1)CC(c1ccccc1)(C3)C2 | -0.24 K
CCCOCC(=O)O | -0.13 K
Cc1cc(Br)c(NCc2cc(=O)n3ccccc3n2)c(Br)c1 | 0.08 K
